Source: ChEMBL document CHEMBL3988442, “University of Dundee, Small-Polar-MMV Screening Library” (2021).

By UniProt entry, the sequences of proteins in these tests, tags left out. Residues count along the entry.
UniProt Q4DA54, 1-478: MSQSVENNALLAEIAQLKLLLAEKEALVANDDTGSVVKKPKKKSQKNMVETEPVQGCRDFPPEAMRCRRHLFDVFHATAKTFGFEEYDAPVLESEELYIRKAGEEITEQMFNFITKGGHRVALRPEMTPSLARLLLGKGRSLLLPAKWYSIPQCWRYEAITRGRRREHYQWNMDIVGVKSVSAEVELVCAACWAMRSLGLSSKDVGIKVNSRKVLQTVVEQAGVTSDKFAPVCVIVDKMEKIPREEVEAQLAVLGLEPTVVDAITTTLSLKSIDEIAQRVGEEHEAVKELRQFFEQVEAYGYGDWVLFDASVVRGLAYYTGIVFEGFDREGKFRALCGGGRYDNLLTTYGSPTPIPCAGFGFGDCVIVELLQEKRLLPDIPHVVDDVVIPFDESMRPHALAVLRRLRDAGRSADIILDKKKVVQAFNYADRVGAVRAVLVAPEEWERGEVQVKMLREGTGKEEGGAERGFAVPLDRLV
UniProt A4I591, 1-473: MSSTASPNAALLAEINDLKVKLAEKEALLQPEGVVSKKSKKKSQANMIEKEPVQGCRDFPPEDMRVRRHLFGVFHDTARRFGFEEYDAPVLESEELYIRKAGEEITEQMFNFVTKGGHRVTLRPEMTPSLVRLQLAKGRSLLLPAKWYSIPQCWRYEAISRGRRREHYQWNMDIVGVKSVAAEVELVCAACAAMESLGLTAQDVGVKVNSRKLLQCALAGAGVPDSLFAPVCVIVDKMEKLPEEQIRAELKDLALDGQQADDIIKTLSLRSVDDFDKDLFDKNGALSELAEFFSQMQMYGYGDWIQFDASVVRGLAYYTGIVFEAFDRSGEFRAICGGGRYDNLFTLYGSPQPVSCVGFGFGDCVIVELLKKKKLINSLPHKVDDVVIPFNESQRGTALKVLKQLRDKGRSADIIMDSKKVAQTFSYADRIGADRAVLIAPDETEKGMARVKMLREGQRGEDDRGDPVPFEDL
UniProt P9WPC5, whole entry: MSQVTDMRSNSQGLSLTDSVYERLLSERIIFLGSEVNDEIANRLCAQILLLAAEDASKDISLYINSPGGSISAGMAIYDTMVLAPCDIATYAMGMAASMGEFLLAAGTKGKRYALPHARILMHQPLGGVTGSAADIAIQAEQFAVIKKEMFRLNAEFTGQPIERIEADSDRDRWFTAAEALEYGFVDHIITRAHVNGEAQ
UniProt P9WPC3, whole entry partner: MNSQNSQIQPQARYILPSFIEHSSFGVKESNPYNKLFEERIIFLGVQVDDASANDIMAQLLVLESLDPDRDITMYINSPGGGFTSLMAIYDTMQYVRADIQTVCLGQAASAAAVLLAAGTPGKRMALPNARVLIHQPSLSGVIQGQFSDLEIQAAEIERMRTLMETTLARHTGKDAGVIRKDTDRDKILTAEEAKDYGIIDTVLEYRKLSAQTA

Results are given as percent effect.
How 0% and 100% were set is not recorded. Most values in the screen are low, and negative values occur.
The compounds are a random part of those screened.
A dash means the value is not listed here; it may have been measured.

Toxoplasma: 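Assay of Toxoplasma gondii numbers, read through their beta-galactosidase reporter with a colour substrate. Tested at 10 µM. The record gives no direction; the compounds picked for IC50 retests had high values, so higher reads as fewer parasites. About 67,000 compounds were tested under these conditions; 0.38% (about 260) showed 50% or more at least once.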
Leishmania in macrophages: 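Cell assay of Leishmania donovani living inside macrophages; the read-out is not stated. Tested at 30 µM. Direction is inferred from retests: higher values go with stronger inhibition. About 69,000 compounds were tested under these conditions; 1.5% (about 1,000) showed 50% or more at least once.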
TcHisRS: 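Enzyme assay of histidyl-tRNA synthetase; the read-out is not stated. Target: Histidine-tRNA ligase, Trypanosoma cruzi CL Brener (UniProt Q4DA54). Tested at 30 µM. Direction is inferred from retests: higher values go with stronger inhibition. Size under these conditions: about 69,000 compounds, about 31 of them at 50% or above in at least one test.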
LiHisRS: 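Enzyme assay of histidyl-tRNA synthetase; the read-out is not stated. Target: Histidine-tRNA ligase, Leishmania infantum (UniProt A4I591). Concentration: 30 µM. Direction is inferred from retests: higher values go with stronger inhibition. The assay is labelled LdHisRS but filed under L. infantum. Of about 69,000 compounds tested this way, about 410 (0.6%) reached 50% or more in at least one test.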
ClpP1P2: 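ClpP1P2, Mycobacterium tuberculosis (UniProt P9WPC5 and UniProt P9WPC3). Protease assay of ClpP1P2, read by the AMC dye that it sets free. Concentration: 50 µM. Direction is inferred from only a few compounds that gave an IC50; most scored high, so higher reads as stronger inhibition. Most other retested compounds had strongly negative values. Size under these conditions: about 69,000 compounds, about 10 of them at 50% or above in at least one test.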
T. brucei: 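Whole-parasite assay of Trypanosoma brucei over 72 hours; the read-out is not stated. Compounds at 30 µM. Higher reads as stronger inhibition (inferred: compounds with an IC50 in retests scored well above the rest). Values scatter widely below zero; nearly all retest evidence comes from the higher of the two concentrations used. Of about 64,000 compounds tested this way, about 940 (1.5%) reached 50% or more in at least one test.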

compound: Cc1ccc(CN2CCOC3(CCN(CC4CCOC4)CC3)C2)cc1.O=C(O)C(F)(F)F.O=C(O)C(F)(F)F (centres undefined)
Toxoplasma: -1.455
Leishmania in macrophages: 54.23
T. brucei: -30.61

compound: [H][C@@]12CCN(Cc3ccc(C)o3)C[C@@]1([H])O[C@@H](c1nc(C3CC3)cs1)C2
Toxoplasma: 0.5425
Leishmania in macrophages: 8.43
T. brucei: -44.6

compound: COCCN1CCCn2c(nc(Cn3cncn3)cc2=O)C1
TcHisRS: 5.6
LiHisRS: 9.735
ClpP1P2: 3.557

compound: O=C(O)C(F)(F)F.[H][C@@]12CN(CC3CCOCC3)C[C@@]1([H])N(CC1CC1)C(=O)CO2
Toxoplasma: -2.743
Leishmania in macrophages: -7.829

compound: CC1CCc2nn(CCNC(=O)c3ccco3)c(=O)cc2C1 (centres undefined)
Toxoplasma: 4.507
Leishmania in macrophages: 3.634
TcHisRS: 7.752
LiHisRS: 8.511
ClpP1P2: 9.584
T. brucei: -0.8662

compound: COCC(=O)NC1CC2(CCN(CC3CC3)CC2)Oc2ccccc21.O=C(O)C(F)(F)F (centres undefined)
Toxoplasma: -19.42
Leishmania in macrophages: 11.74
T. brucei: -8.223

compound: Cc1nn(C)c(C)c1C(C(=O)O)N1CC=C(c2ccccc2)CC1 (centres undefined)
Toxoplasma: -20.36
Leishmania in macrophages: 11.03
TcHisRS: 4.255
LiHisRS: -4.478
ClpP1P2: 1.04
T. brucei: -51.22

compound: C=C(C)C(=O)N1CCC(C(=O)c2cc(C)cnc2N)CC1
Toxoplasma: -1.054
Leishmania in macrophages: -7.141
TcHisRS: 0.5464
LiHisRS: 13.87
ClpP1P2: -14.55
T. brucei: 7.368

compound: C[C@@H]1CN(CCCOc2ccc(F)cc2)CC[C@@]1(O)C1CCOCC1
Toxoplasma: 14.88
Leishmania in macrophages: 28.19
TcHisRS: 4.04
LiHisRS: 18.09
ClpP1P2: -6.659
T. brucei: -19.95

compound: [H][C@@]12COC[C@]1(COc1ccc(C#N)cn1)CN(Cc1cccc(C)n1)C2
Toxoplasma: 23.42
Leishmania in macrophages: 31.54
T. brucei: -4.168

compound: Cn1cc(C2CC(=O)NC23CCN(CC2CC2)CC3)cn1.O=C(O)C(F)(F)F (centres undefined)
Toxoplasma: 3.632
Leishmania in macrophages: 5.337
T. brucei: 29.59

compound: CC(C)Cn1cc(NC(=O)NC(C)(C)c2nccs2)cn1
Toxoplasma: 1.018
Leishmania in macrophages: -3.295
TcHisRS: 3.448
LiHisRS: 2.679
ClpP1P2: -10.49
T. brucei: -22.47

compound: Nc1cnn(CC(=O)N2CCCCC2)c1
TcHisRS: 7.491
LiHisRS: 14
ClpP1P2: -4.758

compound: Cc1cccc(CN(Cc2cccnc2)C2CC(C)(C)NC(C)(C)C2)n1
TcHisRS: 7.692
LiHisRS: 4.348
ClpP1P2: -19.78

compound: COc1cccc(-c2cc(NCc3cscn3)n(C)n2)c1
Toxoplasma: 0.7692
Leishmania in macrophages: 21.88
TcHisRS: 4.082
LiHisRS: -14.52
ClpP1P2: -18.85
T. brucei: -39.3

compound: O=C(CCn1cccn1)NCCOc1ccc2c(c1)OCO2
Toxoplasma: -11.12
Leishmania in macrophages: 42.37
TcHisRS: 11.06
LiHisRS: 12.94
ClpP1P2: 20.67
T. brucei: -11.53

compound: Cc1nn(C)c2nc(NC(C)c3nnn[nH]3)sc12 (centres undefined)
Toxoplasma: 9.572
Leishmania in macrophages: -3.562
TcHisRS: 4.478
LiHisRS: 15.38
ClpP1P2: 27.8
T. brucei: -21.97

compound: O=S1(=O)NC(C2CCN(Cc3ccncc3)CC2)Nc2ccccc21 (centres undefined)
Toxoplasma: -22.68
Leishmania in macrophages: 20.75
TcHisRS: 3.745
LiHisRS: -4
ClpP1P2: 0.967
T. brucei: 4.174

compound: O=C(CCc1cccs1)N1CCc2[nH]nc(COc3ccccc3)c2C1
Toxoplasma: -3.315
Leishmania in macrophages: 1.488
TcHisRS: 11.88
LiHisRS: 2.381
ClpP1P2: -13.07
T. brucei: 68.24

compound: O=C(O)CCCNC(=O)N1CCc2c([nH]c3ccc(Cl)cc23)C1
Toxoplasma: 18.39
Leishmania in macrophages: 38.73
TcHisRS: 5.263
LiHisRS: -2.632
ClpP1P2: -1.678
T. brucei: -22.84

The first 2 entries again:

compound	Toxoplasma	Leishmania in macrophages	TcHisRS	LiHisRS	ClpP1P2	T. brucei
Cc1ccc(CN2CCOC3(CCN(CC4CCOC4)CC3)C2)cc1.O=C(O)C(F)(F)F.O=C(O)C(F)(F)F (centres undefined)	-1.455	54.23	-	-	-	-30.61
[H][C@@]12CCN(Cc3ccc(C)o3)C[C@@]1([H])O[C@@H](c1nc(C3CC3)cs1)C2	0.5425	8.43	-	-	-	-44.6